In PubChem BioAssay AID2685 (National Center for Advancing Translational Sciences (NCATS), 2010) one finds cell number change and AC50 data, which are given here for 56 compounds.

This is one part of the list. Further columns of the screen follow, without active or inactive calls. The list favours compounds with an active or inconclusive main result. Potencies come from curve fits of mixed quality, noted in brackets.

The assay is described as follows: qHTS Assay for Lipid Storage Modulators in Drosophila S3 Cells.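 On cell number change: cells counted by Cell Tracker Red CMTPX staining in the red channel.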 The settings on record: BODIPY lipid droplet fluorescence, 18-24 h; for cell number change: measured here: cell count max response, cells fed with added oleic acid. An outline of the steps:
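Drosophila S3 cells loaded with oleic acid (400 uM, as added) and compounds at several concentrations; lipid droplets imaged by 488-nm laser-scanning cytometry, 500–530 nm intensity and object ratio to cell channel. Percent activity normalized to 20 uM Triacsin C.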

Where [1] appears, read: measured here: lipid fluorescence (Fed channel) AC50, cells fed with added oleic acid.
Where [2] appears, read: measured here: cell number channel AC50, cells fed with added oleic acid.

As for `O=C(CCCN=C1NS(=O)(=O)c2ccccc21)OCC(=O)c1ccccc1`, the cell number change came to 13.5%.
With `Cc1ccc(NC(=O)C(C)OC(=O)Cn2[nH]c(=O)c3ccccc3c2=O)cc1` (stereo not drawn), the cell number change amounted to 2.71%. Moreover, the AC50 under setting [1] is 9.2 µM [rising, partial curve].
As for `CCc1ccc2c(c1)C1(C(=O)N2)N2CCCC2C(C(=O)c2ccc3ccccc3c2)C12C(=O)Nc1ccccc12` (stereo not drawn), the cell number change is -39.2%. For the same compound, the AC50 under setting [2] is 29.1 µM [falling, single point]. Besides, the AC50 under setting [1] was 18.4 µM [falling, single point].
For the compound `O=C(CN1CCc2cc3c(cc2C1)OCCCO3)Nc1cccc(Br)c1`, the cell number change is -29.8%. The AC50 under setting [1] is 29.1 µM [falling, single point].
For the compound `Cc1cc(C)n(-c2nc(-c3cccc(Cl)c3)cs2)n1`, the cell number change was found to be 85.9%. Also, the AC50 under setting [2] is 25.9 µM [rising, partial curve, poor fit]. Further, the AC50 under setting [1] is 25.9 µM [rising, partial curve, poor fit].
In the case of `O=C(Nc1ncc([N+](=O)[O-])s1)C1COc2ccccc2O1` (stereo not drawn), the cell number change is -60.5%. Also, the AC50 under setting [2] is 29.1 µM [falling, single point]. The AC50 under setting [1] was 23.1 µM [falling, partial curve, poor fit].
For the compound `Cc1cccc(-c2ocnc2C(=O)N2CCN(C(=O)c3cccs3)CC2)c1`, the cell number change amounted to 35.5%.
As to `COc1cc(OC)cc(-c2cc3ccc(OC)cc3cn2)c1`, the cell number change came to 7.57%. Also, the AC50 under setting [1] is 1.16 µM [rising, partial curve].
With `CSCCC(NC(=O)COc1ccccc1)C(=O)Nc1ccc(C)cc1` (stereo not drawn), the cell number change amounted to 3.77%. For the same compound, the AC50 under setting [1] was 32.6 µM [falling, single point].
With `O=C(C1=C(O)C(=O)N(CCCN2CCOCC2)C1c1ccccn1)c1cc2ccccc2o1` (stereo not drawn), the cell number change was -0.476%. In addition, under setting [1], the AC50 is 0.092 µM [falling, full curve, poor fit].
For `C=CCn1c(SCC(=O)c2c(C)[nH]c3ccccc23)nnc1-c1ccncc1`, the half-maximal activity concentration (AC50) under setting [2] is 7.31 µM [falling, single point].
Take `COc1ccc(Nc2cc(C)nc3ccc(OC)cc23)cc1`: the cell number change is -23.1%. Under setting [1], the AC50 is 14.6 µM [falling, partial curve, poor fit].
In the case of `O=C(Cn1cnc2c(oc3ccccc32)c1=O)N1CCCC1`, the cell number change came to 20.5%. Besides, under setting [1], the AC50 is 0.82 µM [rising, full curve].
`Cc1cc(NS(=O)(=O)c2ccccc2)n(-c2ccccc2)n1`: the cell number change was determined as 73.1%. In addition, the AC50 under setting [2] was 13 µM [rising, partial curve]. Moreover, the AC50 under setting [1] is 6.51 µM [rising, single point].
As to `CCC(=O)N1c2ccc(S(=O)(=O)NCc3ccco3)cc2CC1C` (stereo not drawn), the cell number change came to 6.75%. Moreover, the AC50 under setting [1] was 0.0651 µM [falling, full curve, poor fit].
Turning to `O=C1c2ccccc2C(=O)N1C(CO)C(O)c1ccc([N+](=O)[O-])cc1` (stereo not drawn), the cell number change amounted to 15.3%.
Consider `O=S(=O)(NC(=S)NC1CCCCC1)c1ccc(Br)cc1`, for which the cell number change was -15.9%. For the same compound, the AC50 under setting [2] is 2.06 µM [falling, partial curve]. The concentration at half-maximal activity (AC50) under setting [1] was 4.61 µM [falling, single point].
Take `O=C(Cc1ccc(-c2ccccc2)cc1)Nc1ccccn1`: the AC50 under setting [1] is 6.51 µM [falling, single point].
For the compound `Cc1[nH]c2ccccc2c1CN1CCc2ccccc2C1`, the AC50 under setting [2] is 6.51 µM [falling, single point] and the AC50 under setting [1] was 4.11 µM [rising, single point].
`COc1ccc(-c2cc(-c3cccs3)c(C#N)c(SCC(=O)NCc3ccco3)n2)cc1`: the cell number change is -21.2%. Further, the AC50 under setting [1] was 8.2 µM [rising, partial curve].
For `CCN(C(=O)COC(=O)/C(=C/c1ccccc1)n1nnnc1C)C1CCCCC1`, the AC50 under setting [1] is 4.11 µM [falling, partial curve].
`CCOC(=O)CSc1nnc(CSc2nc(C)cc(C)n2)n1Cc1ccco1`: the cell number change came to 11.3%.
On to `CN(Cc1ccc(F)cc1)C(=O)c1cccc(S(=O)(=O)N2CCN(Cc3ccccc3)CC2)c1`, for which the cell number change was -33.5%. The AC50 under setting [2] was 20.6 µM [falling, partial curve, poor fit].
Regarding `COc1ccc(CNC(=O)CCNS(=O)(=O)c2ccc(NC(C)=O)cc2)cc1OC`, the cell number change was -6%. For the same compound, the AC50 under setting [1] is 0.00517 µM [rising, full curve].
For `O=C1N[C@@H](Cc2ccccc2)C(=O)N1CCN1CCOCC1`, the cell number change was -20.6%. The AC50 under setting [2] is 0.103 µM [falling, full curve, poor fit]. Moreover, the AC50 under setting [1] is 23.1 µM [falling, partial curve].
For `CCn1cc([N+](=O)[O-])c(C(=O)N2N=C(c3ccccc3)CC2c2ccc([N+](=O)[O-])cc2)n1` (stereo not drawn), the cell number change came out at 15.2%. The AC50 under setting [1] was 2.59 µM [rising, full curve].
With `O=C(NCc1nnc(SCC(=O)N2CCCCCC2)o1)c1ccco1`, the cell number change was -7.75%. The AC50 under setting [1] was 0.082 µM [falling, full curve, poor fit].
With `Cc1ccc2c(c1)c1ncn(Cc3ccc(F)cc3)c(=O)c1n2C`, the cell number change was -7.74%. Besides, the AC50 under setting [2] was 0.731 µM [rising, single point]. Further, the AC50 under setting [1] is 0.731 µM [rising, full curve, poor fit].
In the case of `Cc1ccc(S(=O)(=O)NNC(=O)c2ccccc2O)cc1`, the cell number change is -17.7%. For the same compound, the AC50 under setting [1] was 2.06 µM [falling, partial curve].
In the case of `Cn1c(CNC(=O)Nc2ccccc2Cl)nnc1SCc1ccccc1`, the cell number change was determined as 31.7%. Under setting [2], the AC50 is 0.58 µM [falling, partial curve]. For the same compound, the AC50 under setting [1] is 7.31 µM [rising, partial curve].
In the case of `O=C(Cc1cccc2ccccc12)Nc1ccc(Br)cc1C(=O)O`, the cell number change was 3.23%.
Regarding `CCOC(=O)C1=C(COC(=O)c2ccc(OC(C)C)cc2)NC(=O)NC1C` (stereo not drawn), the cell number change came to 49.1%. In addition, the AC50 under setting [2] was 5.17 µM [rising, partial curve]. In addition, the AC50 under setting [1] is 2.59 µM [rising, single point].
For `COC(=O)c1[nH]c2cccc(OC)c2c1NC(=O)CCN1CCN(c2cccc(Cl)c2)CC1`, the cell number change turned out to be 13.3%. Besides, under setting [2], the AC50 was 2.06 µM [rising, partial curve]. For the same compound, under setting [1], the AC50 is 2.91 µM [rising, full curve].
Turning to `O=C(CSc1nc2[nH]ncc2c(=O)[nH]1)Nc1ccc(F)cc1`, the cell number change is -12.8%.
For the compound `COc1cccc(-c2ccc3ncnc(NCc4ccc5c(c4)OCO5)c3c2)c1`, the cell number change is 4.14%. Besides, under setting [1], the AC50 was 13 µM [rising, partial curve, poor fit].
As to `CC(C)(C)NC(=O)CN(C(=O)CNS(=O)(=O)c1ccc(Cl)cc1)c1ccc2c(c1)OCCO2`, the cell number change was 8.11%.
As to `CC(=O)NC(CC(=O)Nc1ccc(S(=O)(=O)N2CCCC2)cc1)c1ccccc1` (stereo not drawn), the cell number change was -5.39%. Under setting [1], the AC50 was 0.116 µM [falling, full curve, poor fit].
`O=C(CCN1CCN(S(=O)(=O)c2ccc(F)cc2)CC1)Nc1ccccc1F`: the cell number change is 61.1%. In addition, the AC50 under setting [2] is 29.1 µM [rising, single point]. The AC50 under setting [1] was 0.58 µM [rising, single point].
As to `CC(C)(C)c1cc[n+](-c2[nH]c(=O)sc2/C=N/N=C(\[O-])c2cccnc2)cc1`, under setting [1], the AC50 is 0.58 µM [rising, single point].
On to `Cc1ccc(-c2nc(NCc3cccnc3)c3ccccc3n2)cc1`, for which the cell number change was 13.8%. The AC50 under setting [1] is 0.461 µM [rising, full curve, poor fit].
As to `COc1ccc(-n2nc(C(=O)NCC(=O)NCCCN3CCOCC3)c3ccccc3c2=O)cc1OC`, the cell number change was determined as 23%. Moreover, the AC50 under setting [2] was 0.231 µM [rising, full curve, poor fit]. Also, the AC50 under setting [1] was 2.31 µM [rising, partial curve].
With `c1ccn(-c2ccc(-c3ccn[nH]3)cc2)c1`, the cell number change is 72.2%. For the same compound, the AC50 under setting [2] is 20.6 µM [rising, single point].
For the compound `CCOc1ccc(-c2cc(CCCC(=O)NCCc3ccc(OC)c(OC)c3OC)no2)cc1`, the cell number change was 149%.
`O=C(NCCS(=O)(=O)N1CCN(c2ccccc2F)CC1)c1ccc2c(c1)OCO2`: the cell number change stood at 18.2%. The AC50 under setting [1] was 8.2 µM [rising, partial curve, poor fit].
In the case of `CCOc1ccc(N2C(=O)CC(N3CCN(c4ccc(Cl)cc4)CC3)C2=O)cc1` (stereo not drawn), the cell number change came to 34.8%. Also, the AC50 under setting [2] is 29.1 µM [rising, single point].
Consider `CC(=O)Nc1ccc(NC(=O)CCOc2cc(C)ccc2C)cc1`, for which the cell number change came to 194%. Further, the concentration at half-maximal activity (AC50) under setting [2] is 18.4 µM [rising, partial curve].
For the compound `COc1ccc(-c2ccc(C(c3c(C)[nH][nH]c3=O)c3c(C)[nH][nH]c3=O)o2)c([N+](=O)[O-])c1`, the cell number change is -21.6%. Moreover, the AC50 under setting [1] is 5.17 µM [falling, partial curve, poor fit].
Regarding `CCOC(=O)N1CCN(CC(=O)Nc2c(C(=O)OC)[nH]c3ccccc23)CC1`, the cell number change was determined as 3.53%. Also, the AC50 under setting [1] was 6.51 µM [rising, single point].
With `CCC(C)(C)C1CCC(NC(=O)c2ccc(S(=O)(=O)N3CCOCC3)cc2)CC1` (stereo not drawn), the cell number change was found to be 2.39%. The AC50 under setting [1] was 29.1 µM [falling, single point].
On to `COc1cccc(-c2nnc(N)o2)c1`, for which the cell number change was 22.7%. Moreover, the AC50 under setting [1] was 9.2 µM [rising, partial curve].
As for `COC(=O)Cn1cnc2c(nnn2-c2cccc(OC)c2)c1=O`, the cell number change worked out at 42.3%. Further, the AC50 under setting [2] was 13 µM [rising, partial curve, poor fit]. In addition, the AC50 under setting [1] was 0.58 µM [rising, single point].
As to `Cn1c(=O)oc2cc(S(=O)(=O)N3CCCC(C(=O)Nc4nccs4)C3)ccc21` (stereo not drawn), the cell number change is -12.2%. Further, under setting [1], the AC50 was 0.231 µM [rising, full curve, poor fit].
For `CN(C)C(=O)c1nc2ccccc2s1`, the cell number change is -2.17%. Besides, under setting [1], the AC50 is 6.51 µM [rising, partial curve, poor fit].
Consider `CN(C)S(=O)(=O)c1cccc(NC(=S)NN=C(Cc2ccccc2)Cc2ccccc2)c1`, for which the cell number change was determined as 6.9%. Further, the AC50 under setting [2] is 6.51 µM [rising, single point]. The AC50 under setting [1] was 0.0164 µM [rising, partial curve, poor fit].
Consider `COc1ccc(NC(=S)NCCC2=CCCCC2)cc1OC`, for which the cell number change amounted to 20.6%.
`COc1ccc(C)cc1NC(=O)c1nnn(Cc2cc(C)ccc2C)c1N`: the cell number change was -7.13%. The AC50 under setting [1] is 0.058 µM [rising, full curve, poor fit].
